Results as given in article PMC3436762.
These are yes or no findings as the source states them, for the method shown. Binding seen in cells or lysates may run through a third protein. Some results given as binding are weak or reduced against the parent protein; the word gives no strength.

Molecular target: membrane DR5 (endogenous, Jurkat and Daudi cells) (human (endogenous in Jurkat and Daudi)), O14763
Experiment: co-IP; Jurkat cells treated with LaDR5 for 1 hour at 37°C, lysed in 20 mM Tris-HCl, 150 mM NaCl, 10 % glycerol, 2 mM EDTA, 1 % NP-40, pH 8.0; protein A beads; blot for FADD and caspase-8
Conditions: remark: other sources report otherwise

binding: binds
B1: caspase-8, Q14790 1-479 (enzyme)
chain: MDFSRNLYDIGEQLDSEDLASLKFLSLDYIPQRKQEPIKDALMLFQRLQEKRMLEESNLSFLKELLFRINRLDLLITYLNTRKEEMERELQTPGRAQISAYRVMLYQISEEVSRSELRSFKFLLQEEISKCKLDDDMNLLDIFIEMEKRVILGEGKLDILKRVCAQINKSLLKIINDYEEFSKERSSSLEGSPDEFSNGEELCGVMTISDSPREQDSESQTLDKVYQMKSKPRGYCLIINNHNFAKAREKVPKLHSIRDRNGTHLDAGALTTTFEELHFEIKPHDDCTVEQIYEILKIYQLMDHSNMDCFICCILSHGDKGIIYGTDGQEAPIYELTSQFTGLKCPSLAGKPKVFFIQACQGDNYQKGIPVETDSEEQPYLEMDLSSPQTRYIPDEADFLLGMATVNNCVSYRNPAEGTWYIQSLCQSLRERCPRGDDILTILTEVNYEVSNKDDKKNMGKQMPQPTFTLRKKLVFPSD
